Assay [1] deals with YBX1 (human (endogenous in HCT116)) (UniProt P67809). Description: co-IP; HCT116 cell lysates, separate IP with hTERT and YBX1 antibody and protein A/G beads (Co-IP kit, Active Motif), detected by western blotting. For orientation: In western blotting, separated proteins are transferred to a membrane and probed.
Assay [2] deals with Human telomerase reverse transcriptase (human (endogenous in HCT116)) (UniProt O14746). The assay is described as above.

Protein sequences, listed by entry. Tags and fused reporters are not part of them.
UniProt P67809: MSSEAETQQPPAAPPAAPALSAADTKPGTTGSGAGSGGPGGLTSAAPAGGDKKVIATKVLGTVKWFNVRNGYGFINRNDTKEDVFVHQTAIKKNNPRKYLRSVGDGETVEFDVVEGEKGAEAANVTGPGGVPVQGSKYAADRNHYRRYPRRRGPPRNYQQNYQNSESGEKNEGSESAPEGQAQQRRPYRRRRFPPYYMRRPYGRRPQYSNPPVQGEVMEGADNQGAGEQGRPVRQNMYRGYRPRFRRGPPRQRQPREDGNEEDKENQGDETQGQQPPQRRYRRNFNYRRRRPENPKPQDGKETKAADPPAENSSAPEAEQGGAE
UniProt O14746: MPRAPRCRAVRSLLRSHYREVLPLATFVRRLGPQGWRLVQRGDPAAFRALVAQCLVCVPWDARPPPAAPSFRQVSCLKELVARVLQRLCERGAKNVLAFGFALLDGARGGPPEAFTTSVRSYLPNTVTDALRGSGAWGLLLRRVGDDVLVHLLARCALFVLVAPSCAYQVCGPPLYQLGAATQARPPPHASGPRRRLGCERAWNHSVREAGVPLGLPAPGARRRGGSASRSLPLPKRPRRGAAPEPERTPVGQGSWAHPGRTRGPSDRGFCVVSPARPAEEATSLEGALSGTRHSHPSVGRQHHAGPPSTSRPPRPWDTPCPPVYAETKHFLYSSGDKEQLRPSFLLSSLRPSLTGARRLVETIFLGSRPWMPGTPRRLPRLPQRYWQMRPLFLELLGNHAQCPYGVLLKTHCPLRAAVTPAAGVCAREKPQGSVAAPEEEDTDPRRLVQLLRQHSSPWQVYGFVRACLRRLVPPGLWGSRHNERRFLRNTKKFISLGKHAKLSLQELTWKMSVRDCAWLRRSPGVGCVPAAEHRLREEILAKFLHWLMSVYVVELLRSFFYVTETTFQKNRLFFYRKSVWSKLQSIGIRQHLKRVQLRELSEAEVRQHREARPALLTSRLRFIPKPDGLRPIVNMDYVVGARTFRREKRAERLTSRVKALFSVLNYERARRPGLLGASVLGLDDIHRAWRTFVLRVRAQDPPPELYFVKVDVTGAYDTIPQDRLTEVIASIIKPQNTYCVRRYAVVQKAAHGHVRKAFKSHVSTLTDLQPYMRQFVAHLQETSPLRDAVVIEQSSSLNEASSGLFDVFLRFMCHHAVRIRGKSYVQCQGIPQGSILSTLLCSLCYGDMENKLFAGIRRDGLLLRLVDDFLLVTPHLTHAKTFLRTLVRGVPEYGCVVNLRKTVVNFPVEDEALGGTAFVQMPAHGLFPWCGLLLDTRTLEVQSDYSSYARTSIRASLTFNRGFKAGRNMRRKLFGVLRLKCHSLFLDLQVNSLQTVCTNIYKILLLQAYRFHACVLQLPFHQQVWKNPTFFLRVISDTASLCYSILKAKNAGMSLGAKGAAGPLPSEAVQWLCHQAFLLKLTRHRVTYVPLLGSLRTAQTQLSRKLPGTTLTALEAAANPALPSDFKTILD

No constants are given. Whether binding was seen depends on the method and setting. Binding seen in cells or lysates may run through a third protein. Some entries that bind do so weakly or less than the wild type.

As to “Human telomerase reverse transcriptase (from UniProt O14746 1-1132)”, in assay [1], the binding result is listed as “binds”.
Take YBX1 (from UniProt P67809 1-324): the binding result in assay [2] is listed as “binds”.

The values above are taken from article PMC8165255.
